PubChem BioAssay AID1508597, Cure First | 2020

- Test: 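Knock-downs altering ovarian cancer cell survival with or without PARP inhibitor rucaparib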 (primary screen)
- System: human ovarian carcinoma lines grown from tumours: OCI-P5x (papillary serous) and OCI-C5x (clear cell)
- Knock-down reagent: siRNA pool against human genes, 1.25 pmol siRNA per well
- Time to read-out: 72 h or 96 h, depending on the cell culture
- Treatment: rucaparib 20 µM (about IC30) or vehicle, present until read-out
- Rucaparib or vehicle: Vehicle
- Cell line: OCI-P5x (serous)
- Read-out: 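ATP luminescence measured at 72 or 96 h according to the culture, then normalised and expressed as percent viability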
- Scale: viability, normalised: higher = more viable cells remaining
- Active means: 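a well counts as a hit if its normalised viability is under 80 percent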
- Calls: active = viability under 80%; inactive = viability 80% or more
This is an unselected part of the about 2,100 reagents, under one of the conditions tested. 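Calls flag viability under 80% in either arm, not effects specific to rucaparib; the reference for percent is not stated.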 The record does not give: the 100% reference.

PRDM10, technical replicate 1 | viability, normalised (%) = 59.4; outcome = active
PRDM10, technical replicate 2 | viability, normalised (%) = 62.1; outcome = active
PRDM10, technical replicate 3 | viability, normalised (%) = 88.8; outcome = inactive
MINK1, technical replicate 1 | viability, normalised (%) = 71.6; outcome = active
MINK1, technical replicate 2 | viability, normalised (%) = 62.7; outcome = active
MINK1, technical replicate 3 | viability, normalised (%) = 55.6; outcome = active
ZNF541, technical replicate 1 | viability, normalised (%) = 62.5; outcome = active
ZNF541, technical replicate 2 | viability, normalised (%) = 77.2; outcome = active
ZNF541, technical replicate 3 | viability, normalised (%) = 43.8; outcome = active

Targets listed so far whose gene name starts with Z or z:
ZNF541, technical replicate 1 | viability, normalised (%) = 62.5; outcome = active
ZNF541, technical replicate 2 | viability, normalised (%) = 77.2; outcome = active
ZNF541, technical replicate 3 | viability, normalised (%) = 43.8; outcome = active

Continued:
SGK1, technical replicate 1 | viability, normalised (%) = 93.5; outcome = inactive
SGK1, technical replicate 2 | viability, normalised (%) = 85.3; outcome = inactive
SGK1, technical replicate 3 | viability, normalised (%) = 74.1; outcome = active
CHMP4A, technical replicate 1 | viability, normalised (%) = 57.1; outcome = active
CHMP4A, technical replicate 2 | viability, normalised (%) = 86.9; outcome = inactive
CHMP4A, technical replicate 3 | viability, normalised (%) = 87.4; outcome = inactive
RSF1, technical replicate 1 | viability, normalised (%) = 64.1; outcome = active
RSF1, technical replicate 2 | viability, normalised (%) = 62.9; outcome = active
RSF1, technical replicate 3 | viability, normalised (%) = 76.5; outcome = active
PRPS2, technical replicate 1 | viability, normalised (%) = 85.1; outcome = inactive
PRPS2, technical replicate 2 | viability, normalised (%) = 91.1; outcome = inactive
PRPS2, technical replicate 3 | viability, normalised (%) = 92; outcome = inactive
